{"source": "the supplement of paper PMC7024190", "note": "Structures can show the parent of a compound that is named as a salt. The list shows a part of the results. Repeats in this data set agree poorly, so a single value says little.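 Human embryonic kidney cells were transiently transfected with a plasmid bearing a Renilla luciferase gene under the HSV-TK promoter. This first-round screen tests roughly ten thousand compounds for ones that increase reporter output.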"}
{"test_system": "HEK 293FT", "assay": "log relative Renilla luciferase luminescence (reporter expression vs reference, reference not stated) (log (base not stated)); higher = higher recombinant reporter expression", "settings": "10 µM; time after transfection 48 h"}
{"smiles": "O=C1NC(=O)c2c1c1c3ccccc3[nH]c1c1[nH]c3ccccc3c21", "note": "[Arcyriaflavin A]", "log": -0.187}
{"smiles": "OC(Cc1ccncc1)C(Cl)(Cl)Cl", "note": "(stereo not drawn)", "log": 0.0885}
{"smiles": "O=C(O)CCC(CP(=O)(O)O)C(=O)O", "note": "(stereo not drawn) [PMPA (NAALADase inhibitor)]", "log": -0.0265}
{"smiles": "CN(C)CCN(C)CCc1ccc(Cl)c(Cl)c1", "note": "[BD 1047 dihydrobromide]", "log": 0.0906}
{"smiles": "C#CCOC(=O)C1=CCCN(C)C1", "note": "[Arecaidine propargyl ester tosylate]", "log": -0.00977}
{"smiles": "c1ccc2nc(N3CCNCC3)ccc2c1", "note": "[Quipazine dimaleate]", "log": 0.0692}
{"smiles": "CN1CCN(c2ccc3ccccc3n2)CC1", "note": "[N-Methylquipazine dimaleate]", "log": -0.00108}
{"smiles": "CCCN(CCC)[C@@H]1CCc2c(OC)cccc2[C@@H]1C", "note": "[(+)-UH 232 maleate]", "log": 0.0199}
{"smiles": "Oc1ccc2c3c1O[C@H]1c4[nH]c5ccccc5c4C[C@@]4(O)[C@@H](C2)N(CC2CC2)CC[C@]314", "note": "[Naltrindole hydrochloride]", "log": -0.0186}
{"smiles": "CN1Cc2ccccc2[C@@H]2c3cccc4[nH]cc(c34)C[C@H]21", "log": -0.085}
{"smiles": "CCCN(CCC)C1CCc2ccc(O)cc2C1", "note": "(stereo not drawn) [7-Hydroxy-DPAT hydrobromide]", "log": -0.0464}
{"smiles": "CN(C(=O)Cc1ccc(Cl)c(Cl)c1)[C@H](CN1CCCC1)c1ccccc1", "note": "[ICI-199,441 hydrochloride]", "log": 0.119}
{"smiles": "CCN1C[C@]2(COC(=O)c3ccccc3N3C(=O)C[C@H](C)C3=O)CC[C@H](OC)[C@@]34[C@@H]5C[C@H]6[C@H](OC)[C@@H]5[C@](O)(C[C@@H]6OC)[C@](O)([C@@H](OC)[C@H]23)[C@@H]14", "note": "[Methyllycaconitine citrate]", "log": -0.0634}
